Values from PubChem BioAssay AID1259254 (NCATS, 2017)

- Purpose: 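Finding genes that stop cells copying their DNA twice in one cycle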 (primary screen)
- System: human HCT116 colorectal cancer cells
- Reagents: single siRNA against human genes
- Time to read-out: 3 days
- Detection: 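Imaged Hoechst DNA stain sorts each cell into a cycle phase by DNA amount; per plate, G2 fraction set to 0% for non-targeting and 100% for GMNN siRNA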
- Direction: G2 robust z-score and G2 cells, % of GMNN control: higher = more G2 cells, more excess DNA replication; raw share of cells in G2: higher = larger share of cells with G2 DNA content
- Hit rule: 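Active siRNAs have a G2 robust z of 5 or more median absolute deviations over the median, which in these data means about 38% or higher of GMNN control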
This is a random part of about 59,000 reagents tested. Of all reagents, about 1,550 (2.6%) got an active call. 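G2 share is only a proxy for re-replication; each gene was hit by three separate siRNAs, and active genes were retested.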 The raw values are shown without normalisation. Unmarked entries are inactive. The numbers tell different reagents against one gene apart. Not stated in the record: the amount of reagent.

| Target gene | reagent | G2 robust z-score | G2 cells, % of GMNN control | raw share of cells in G2 (%) |
| --- | --- | --- | --- | --- |
| TRIML2 (tripartite motif family like 2) | 1 | -0.438 | -0.111 | 3.54 |
| TRIML2 (tripartite motif family like 2) | 2 | -0.434 | -0.0857 | 3.1 |
| TRIML2 (tripartite motif family like 2) | 3 | 0.801 | 8.6 | 5.94 |
| MIR9-2HG (MIR9-2 host gene) | 1 | -1.09 | -4.73 | 1.99 |
| MIR9-2HG (MIR9-2 host gene) | 2 | -0.296 | 0.885 | 3.55 |
| MIR9-2HG (MIR9-2 host gene) | 3 | 2.01 | 17.1 | 8.49 |
| MLLT1 (MLLT1 super elongation complex subunit) | 1 | 0.153 | 4.05 | 5.07 |
| MLLT1 (MLLT1 super elongation complex subunit) | 2 | -0.0704 | 2.47 | 6 |
| MLLT1 (MLLT1 super elongation complex subunit) | 3 | 0.453 | 6.15 | 5.34 |
| FRY (FRY microtubule binding protein) | 1 | -0.846 | -2.99 | 3.98 |
| FRY (FRY microtubule binding protein) | 2 | -0.129 | 2.06 | 4.8 |
| FRY (FRY microtubule binding protein) | 3 | -0.713 | -2.05 | 2.66 |
| LRP6 (LDL receptor related protein 6) | 1 | 3.83 | 29.9 | 17.3 |
| LRP6 (LDL receptor related protein 6) | 2 | -1.11 | -4.88 | 3.48 |
| LRP6 (LDL receptor related protein 6) | 3 | 0.116 | 3.79 | 4.44 |
| NAT9 (N-acetyltransferase 9) | 1 | -0.0908 | 2.33 | 4.75 |
| NAT9 (N-acetyltransferase 9) | 2 | 0.492 | 6.43 | 9.08 |
| NAT9 (N-acetyltransferase 9) | 3 | -1.06 | -4.5 | 2.69 |
| RHBG (Rh family B glycoprotein) | 1 | 3.99 | 31 | 17.3 |
| RHBG (Rh family B glycoprotein) | 2 | -0.991 | -4.01 | 4.67 |
| RHBG (Rh family B glycoprotein) | 3 | -0.816 | -2.77 | 3.45 |
| STON1 (stonin 1) | 1 | -1.18 | -5.33 | 2.9 |
| STON1 (stonin 1) | 2 | -0.421 | 0.00539 | 4.14 |
| STON1 (stonin 1) | 3 | -0.459 | -0.259 | 3.08 |
| HOXC8 (homeobox C8) | 1 | -0.915 | -3.47 | 4.36 |
| HOXC8 (homeobox C8) | 2 | -0.806 | -2.71 | 3.21 |
| HOXC8 (homeobox C8) | 3 | 0.47 | 6.27 | 7.32 |
| RAN (RAN, member RAS oncogene family) | 1 | 0.0923 | 3.62 | 6.06 |
| RAN (RAN, member RAS oncogene family) | 2 | -0.707 | -2.01 | 3.48 |
| RAN (RAN, member RAS oncogene family) | 3 | 3.8 | 29.7 | 15.2 |
| ZNF285CP (zinc finger protein 285C, pseudogene) | 1 | 0.237 | 4.64 | 5.41 |
| ZNF285CP (zinc finger protein 285C, pseudogene) | 2 | -0.552 | -0.917 | 3.07 |
| ZNF285CP (zinc finger protein 285C, pseudogene) | 3 | -0.688 | -1.88 | 2.48 |
| ZNF285CP (zinc finger protein 285C, pseudogene) | 4 | 4.09 | 31.7 | 15.7 |
| ZNF285CP (zinc finger protein 285C, pseudogene) | 5 | -0.0349 | 2.72 | 4.23 |
| ZNF285CP (zinc finger protein 285C, pseudogene) | 6 | -0.473 | -0.364 | 2.93 |
| SLC35E4 | 1 | 0.417 | 5.9 | 6.01 |
| SLC35E4 | 2 | -0.355 | 0.471 | 3.47 |
| SLC35E4 | 3 | -0.745 | -2.27 | 3.27 |
| PIP4P2 (phosphatidylinositol-4,5-bisphosphate 4-phosphatase 2) | 1 | 1.03 | 10.2 | 8.44 |
| PIP4P2 (phosphatidylinositol-4,5-bisphosphate 4-phosphatase 2) | 2 | -0.598 | -1.24 | 3.62 |
| PIP4P2 (phosphatidylinositol-4,5-bisphosphate 4-phosphatase 2) | 3 | 0.098 | 3.66 | 4.3 |
| IL16 (interleukin 16) | 1 | -0.0869 | 2.36 | 5.9 |
| IL16 (interleukin 16) | 2 | -0.944 | -3.68 | 4.28 |
| IL16 (interleukin 16) | 3 | 1.03 | 10.2 | 7.95 |
| COA6 (cytochrome c oxidase assembly factor 6) | 1 | 1.94 | 16.6 | 9.46 |
| COA6 (cytochrome c oxidase assembly factor 6) | 2 | -0.296 | 0.885 | 3.79 |
| COA6 (cytochrome c oxidase assembly factor 6) | 3 | -1.42 | -7.03 | 1.62 |
| AK7 (adenylate kinase 7) | 1 | -0.526 | -0.734 | 5.36 |
| AK7 (adenylate kinase 7) | 2 | 0.0883 | 3.59 | 6.5 |
| AK7 (adenylate kinase 7) | 3 | 0.178 | 4.22 | 5.03 |
| MORF4L1 (mortality factor 4 like 1) | 1 | -0.602 | -1.27 | 3.43 |
| MORF4L1 (mortality factor 4 like 1) | 2 | -0.345 | 0.538 | 6.69 |
| MORF4L1 (mortality factor 4 like 1) | 3 | 0.443 | 6.09 | 8.34 |
| SHANK2 (SH3 and multiple ankyrin repeat domains 2) | 1 | -0.0609 | 2.54 | 4.12 |
| SHANK2 (SH3 and multiple ankyrin repeat domains 2) | 2 | -0.138 | 1.99 | 5.77 |
| SHANK2 (SH3 and multiple ankyrin repeat domains 2) | 3 | 0.273 | 4.89 | 6.15 |
| HEXIM2 (HEXIM P-TEFb complex subunit 2) | 1 | -0.487 | -0.462 | 3.91 |
| HEXIM2 (HEXIM P-TEFb complex subunit 2) | 2 | 0.225 | 4.55 | 4.69 |
| HEXIM2 (HEXIM P-TEFb complex subunit 2) | 3 | 0.368 | 5.56 | 3.44 |
| KNL1 (kinetochore scaffold 1) | 1 | 7.2 (active) | 53.6 | 25.5 |
| KNL1 (kinetochore scaffold 1) | 2 | 2.35 | 19.5 | 13.8 |
| KNL1 (kinetochore scaffold 1) | 3 | 5.14 (active) | 39.1 | 15.4 |
| PCOLCE (procollagen C-endopeptidase enhancer) | 1 | -0.142 | 1.97 | 5.81 |
| PCOLCE (procollagen C-endopeptidase enhancer) | 2 | -1.38 | -6.77 | 1.55 |
| PCOLCE (procollagen C-endopeptidase enhancer) | 3 | -0.738 | -2.23 | 2.55 |
| VTI1A (vesicle transport through interaction with t-SNAREs 1A) | 1 | -0.429 | -0.049 | 3.05 |
| VTI1A (vesicle transport through interaction with t-SNAREs 1A) | 2 | -0.752 | -2.32 | 3.05 |
| VTI1A (vesicle transport through interaction with t-SNAREs 1A) | 3 | -0.00192 | 2.95 | 3.83 |

Targets above whose gene name begins with M or m:
| Target gene | reagent | G2 robust z-score | G2 cells, % of GMNN control | raw share of cells in G2 (%) |
| --- | --- | --- | --- | --- |
| MIR9-2HG (MIR9-2 host gene) | 1 | -1.09 | -4.73 | 1.99 |
| MIR9-2HG (MIR9-2 host gene) | 2 | -0.296 | 0.885 | 3.55 |
| MIR9-2HG (MIR9-2 host gene) | 3 | 2.01 | 17.1 | 8.49 |
| MLLT1 (MLLT1 super elongation complex subunit) | 1 | 0.153 | 4.05 | 5.07 |
| MLLT1 (MLLT1 super elongation complex subunit) | 2 | -0.0704 | 2.47 | 6 |
| MLLT1 (MLLT1 super elongation complex subunit) | 3 | 0.453 | 6.15 | 5.34 |
| MORF4L1 (mortality factor 4 like 1) | 1 | -0.602 | -1.27 | 3.43 |
| MORF4L1 (mortality factor 4 like 1) | 2 | -0.345 | 0.538 | 6.69 |
| MORF4L1 (mortality factor 4 like 1) | 3 | 0.443 | 6.09 | 8.34 |
